Molecular target: T1, A1 receptors (Rattus norvegicus, UniProt P25099)
T1 sequence (P25099 1-326): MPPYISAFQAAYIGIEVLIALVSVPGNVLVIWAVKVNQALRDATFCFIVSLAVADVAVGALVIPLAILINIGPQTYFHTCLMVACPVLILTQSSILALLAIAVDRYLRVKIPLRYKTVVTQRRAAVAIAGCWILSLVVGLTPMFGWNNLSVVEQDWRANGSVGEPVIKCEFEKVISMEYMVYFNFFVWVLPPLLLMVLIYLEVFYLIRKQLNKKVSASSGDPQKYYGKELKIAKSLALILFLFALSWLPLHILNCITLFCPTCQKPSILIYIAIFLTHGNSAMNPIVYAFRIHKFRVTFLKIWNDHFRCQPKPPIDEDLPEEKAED
Assay type: binding

In the case of `COC(=O)C1=C(C)NC(C)=C(C(=O)OC)C1c1ccccc1[N+](=O)[O-]` [Compound 60, nifedipine, reference compound], the “greater affinity to A1 than A2a adenosine receptors” value is reported as “greater affinity to A1 adenosine receptors than A2a receptors” and the Ki (read-out: Ki rA1) is reported as 2890 nM.
